Article PMC9959666
These are yes or no findings as the source states them, for the method shown. In cells and extracts the contact can be indirect. Binding can be weak; no strength is given. Where a sequence is shown, tags or fusion partners need not be part of it.

Molecular target: T1, myc-ERR1 (estrogen related receptor alpha) (UniProt P11474)
T1 sequence: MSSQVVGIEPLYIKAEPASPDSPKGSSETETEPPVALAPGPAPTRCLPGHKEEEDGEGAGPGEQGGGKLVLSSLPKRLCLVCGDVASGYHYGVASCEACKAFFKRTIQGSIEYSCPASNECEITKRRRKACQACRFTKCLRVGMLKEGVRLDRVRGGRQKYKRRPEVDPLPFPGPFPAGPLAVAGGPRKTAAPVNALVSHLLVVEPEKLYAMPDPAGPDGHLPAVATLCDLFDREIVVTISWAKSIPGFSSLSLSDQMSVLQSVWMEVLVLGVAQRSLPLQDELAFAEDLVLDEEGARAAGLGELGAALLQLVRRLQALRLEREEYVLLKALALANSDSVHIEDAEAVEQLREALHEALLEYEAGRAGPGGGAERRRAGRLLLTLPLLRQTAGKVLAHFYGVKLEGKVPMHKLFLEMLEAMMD
Assay: co-IP; myc-ERR1 and the GFP-tagged kinesin fragment co-expressed in HEK293T cells; lysed one day after transfection (50 mM HEPES pH 7.4, 150 mM NaCl, 1.5 mM MgCl2, 0.5 mM CaCl2, 10% glycerol, 1% Triton-X100); lysate incubated overnight at 4 °C with anti-myc antibody, Protein-G sepharose beads; immunoblot

## GFP-KIF17-NR (KIF17 nuclear receptor box motif fragment) (human) (domain or fragment)
  binding: binds
